The values that follow come from PMC10618106.

Amino acid sequences for entries named in this document (tags omitted).
UniProt P68400: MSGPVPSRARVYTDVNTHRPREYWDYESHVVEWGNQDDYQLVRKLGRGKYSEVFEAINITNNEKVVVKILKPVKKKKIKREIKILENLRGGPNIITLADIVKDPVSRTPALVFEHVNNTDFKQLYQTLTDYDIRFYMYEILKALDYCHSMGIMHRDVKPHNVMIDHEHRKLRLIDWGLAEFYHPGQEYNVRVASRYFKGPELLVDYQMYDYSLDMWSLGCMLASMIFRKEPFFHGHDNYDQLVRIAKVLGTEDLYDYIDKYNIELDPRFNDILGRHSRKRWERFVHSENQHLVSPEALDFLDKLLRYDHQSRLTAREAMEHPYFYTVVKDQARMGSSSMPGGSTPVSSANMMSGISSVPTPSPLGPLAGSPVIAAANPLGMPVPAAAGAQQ

The experiment addresses FLAG-tagged CK2α (human) (UniProt P68400). The experiment is described as follows: affinity purification with mass spectrometry; FLAG-CK2α expressed in HEK293; nuclear fractions of cells starved and restimulated with serum to early G1 (6 h) or late G1 (15-16 h); pre-cleared with normal IgG-agarose, anti-FLAG M2 agarose, eluted with FLAG peptide, trypsin, nano-LC MS/MS (Mascot).

Results are given in words; binding and its absence hold for the method and conditions named. Binding seen in cells or lysates may run through a third protein. Here binding means that the protein was enriched with, or labelled near, the bait; the list need not be complete.

B1: UTP14A (protein, UniProt Q9BVJ6 1-771)
chain: MTANRLAESLLALSQQEELADLPKDYLLSESEDEGDNDGERKHQKLLEAISSLDGKNRRKLAERSEASLKVSEFNVSSEGSGEKLVLADLLEPVKTSSSLATVKKQLSRVKSKKTVELPLNKEEIERIHREVAFNKTAQVLSKWDPVVLKNRQAEQLVFPLEKEEPAIAPIEHVLSGWKARTPLEQEIFNLLHKNKQPVTDPLLTPVEKASLRAMSLEEAKMRRAELQRARALQSYYEAKARREKKIKSKKYHKVVKKGKAKKALKEFEQLRKVNPAAALEELEKIEKARMMERMSLKHQNSGKWAKSKAIMAKYDLEARQAMQEQLSKNKELTQKLQVASESEEEEGGTEDVEELLVPDVVNEVQMNADGPNPWMLRSCTSDTKEAATQEDPEQLPELEAHGVSESEGEERPVAEEEILLREFEERRSLRKRSELSQDAEPAGSQETKDSGSQEVLSELRVLSQKLKENHQSRKQKASSEGTIPQVQREEPAPEEEEPLLLQRPERVQTLEELEELGKEECFQNKELPRPVLEGQQSERTPNNRPDAPKEKKKKEQMIDLQNLLTTQSPSVKSLAVPTIEELEDEEERNHRQMIKEAFAGDDVIRDFLKEKREAVEASKPKDVDLTLPGWGEWGGVGLKPSAKKRRRFLIKAPEGPPRKDKNLPNVIINEKRNIHAAAHQVRVLPYPFTHHWQFERTIQTPIGSTWNTQRAFQKLTTPKVVTKPGHIINPIKAEDVGYRSSSRSDLSVIQRNPKRITTRHKKQLKKCSVD
As for B1, the binding result is “binds”.

B2: General transcription factor 3C polypeptide 4 (protein, UniProt Q9UKN8 1-822)
chain: MNTADQARVGPADDGPAPSGEEEGEGGGEAGGKEPAADAAPGPSAAFRLMVTRREPAVKLQYAVSGLEPLAWSEDHRVSVSTARSIAVLELICDVHNPGQDLVIHRTSVPAPLNSCLLKVGSKTEVAECKEKFAASKDPTVSQTFMLDRVFNPEGKALPPMRGFKYTSWSPMGCDANGRCLLAALTMDNRLTIQANLNRLQWVQLVDLTEIYGERLYETSYRLSKNEAPEGNLGDFAEFQRRHSMQTPVRMEWSGICTTQQVKHNNECRDVGSVLLAVLFENGNIAVWQFQLPFVGKESISSCNTIESGITSPSVLFWWEYEHNNRKMSGLIVGSAFGPIKILPVNLKAVKGYFTLRQPVILWKEMDQLPVHSIKCVPLYHPYQKCSCSLVVAARGSYVFWCLLLISKAGLNVHNSHVTGLHSLPIVSMTADKQNGTVYTCSSDGKVRQLIPIFTDVALKFEHQLIKLSDVFGSVRTHGIAVSPCGAYLAIITTEGMINGLHPVNKNYQVQFVTLKTFEEAAAQLLESSVQNLFKQVDLIDLVRWKILKDKHIPQFLQEALEKKIESSGVTYFWRFKLFLLRILYQSMQKTPSEALWKPTHEDSKILLVDSPGMGNADDEQQEEGTSSKQVVKQGLQERSKEGDVEEPTDDSLPTTGDAGGREPMEEKLLEIQGKIEAVEMHLTREHMKRVLGEVYLHTWITENTSIPTRGLCNFLMSDEEYDDRTARVLIGHISKKMNKQTFPEHCSLCKEILPFTDRKQAVCSNGHIWLRCFLTYQSCQSLIYRRCLLHDSIARHPAPEDPDWIKRLLQSPCPFCDSPVF
On to B2, for which the binding result is “binds”.

B3: Structural maintenance of chromosomes protein 1A (protein, UniProt Q14683 1-1233)
chain: MGFLKLIEIENFKSYKGRQIIGPFQRFTAIIGPNGSGKSNLMDAISFVLGEKTSNLRVKTLRDLIHGAPVGKPAANRAFVSMVYSEEGAEDRTFARVIVGGSSEYKINNKVVQLHEYSEELEKLGILIKARNFLVFQGAVESIAMKNPKERTALFEEISRSGELAQEYDKRKKEMVKAEEDTQFNYHRKKNIAAERKEAKQEKEEADRYQRLKDEVVRAQVQLQLFKLYHNEVEIEKLNKELASKNKEIEKDKKRMDKVEDELKEKKKELGKMMREQQQIEKEIKEKDSELNQKRPQYIKAKENTSHKIKKLEAAKKSLQNAQKHYKKRKGDMDELEKEMLSVEKARQEFEERMEEESQSQGRDLTLEENQVKKYHRLKEEASKRAATLAQELEKFNRDQKADQDRLDLEERKKVETEAKIKQKLREIEENQKRIEKLEEYITTSKQSLEEQKKLEGELTEEVEMAKRRIDEINKELNQVMEQLGDARIDRQESSRQQRKAEIMESIKRLYPGSVYGRLIDLCQPTQKKYQIAVTKVLGKNMDAIIVDSEKTGRDCIQYIKEQRGEPETFLPLDYLEVKPTDEKLRELKGAKLVIDVIRYEPPHIKKALQYACGNALVCDNVEDARRIAFGGHQRHKTVALDGTLFQKSGVISGGASDLKAKARRWDEKAVDKLKEKKERLTEELKEQMKAKRKEAELRQVQSQAHGLQMRLKYSQSDLEQTKTRHLALNLQEKSKLESELANFGPRINDIKRIIQSREREMKDLKEKMNQVEDEVFEEFCREIGVRNIREFEEEKVKRQNEIAKKRLEFENQKTRLGIQLDFEKNQLKEDQDKVHMWEQTVKKDENEIEKLKKEEQRHMKIIDETMAQLQDLKNQHLAKKSEVNDKNHEMEEIRKKLGGANKEMTHLQKEVTAIETKLEQKRSDRHNLLQACKMQDIKLPLSKGTMDDISQEEGSSQGEDSVSGSQRISSIYAREALIEIDYGDLCEDLKDAQAEEEIKQEMNTLQQKLNEQQSVLQRIAAPNMKAMEKLESVRDKFQETSDEFEAARKRAKKAKQAFEQIKKERFDRFNACFESVATNIDEIYKALSRNSSAQAFLGPENPEEPYLDGINYNCVAPGKRFRPMDNLSGGEKTVAALALLFAIHSYKPAPFFVLDEIDAALDNTNIGKVANYIKEQSTCNFQAIVISLKEEFYTKAESLIGVYPEQGDCVISKVLTFDLTKYPDANPNPNEQ
Consider B3, for which the binding entry was “binds”.

B4: UTP18 (protein, UniProt Q9Y5J1 1-556)
chain: MPPERRRRMKLDRRTGAKPKRKPGMRPDWKAGAGPGGPPQKPAPSSQRKPPARPSAAAAAIAVAAAEEERRLRQRNRLRLEEDKPAVERCLEELVFGDVENDEDALLRRLRGPRVQEHEDSGDSEVENEAKGNFPPQKKPVWVDEEDEDEEMVDMMNNRFRKDMMKNASESKLSKDNLKKRLKEEFQHAMGGVPAWAETTKRKTSSDDESEEDEDDLLQRTGNFISTSTSLPRGILKMKNCQHANAERPTVARISSVQFHPGAQIVMVAGLDNAVSLFQVDGKTNPKIQSIYLERFPIFKACFSANGEEVLATSTHSKVLYVYDMLAGKLIPVHQVRGLKEKIVRSFEVSPDGSFLLINGIAGYLHLLAMKTKELIGSMKINGRVAASTFSSDSKKVYASSGDGEVYVWDVNSRKCLNRFVDEGSLYGLSIATSRNGQYVACGSNCGVVNIYNQDSCLQETNPKPIKAIMNLVTGVTSLTFNPTTEILAIASEKMKEAVRLVHLPSCTVFSNFPVIKNKNISHVHTMDFSPRSGYFALGNEKGKALMYRLHHYSDF
As for B4, the binding entry was “binds”.
